Source: patent US20230181614A1, “ADMINISTRATION OF CITICOLINE TO IMPROVE COGNITIVE PERFORMANCE, ATTENTIONAL PERFORMANCE, AND MOTOR FUNCTION” (KYOWA HAKKO BIO CO., LTD., priority 2014, published 2023)
At least one compound was matched to its structure with a doubt left.

Tested on: Healthy subjects, ages 13-18
Test: Conner-Wells Self-Report Scale (L) (Conners)
Assay type: in vivo, human
Settings: for Conners problem behaviors difference scores, between groups / Conners problem behaviors, within-group change: visit 1 to visit 3
Source text: Study participants were screened by telephone prior to study enrollment. Healthy subjects, ages 13-18, with no significant medical conditions and no history of co-morbid psychiatric disorder, current Axis I or II diagnosis, or previous participation in a pharmacotherapeutic trial, were selected. Use of any psychotropic medication or any previous head injury resulting in loss of consciousness for 5 or more minutes were used as exclusion criteria. While no participant met criteria for a neuropsychiatric disorder at enrollment, clinical assessments were still completed throughout the study to evaluate changes in mood state. In addition, self-reports of sleep habits, lifestyle, and exercise routines were also administered at baseline as well as at each study visit to assess changes in health habits during study participation. Following the completion of Visit 1 assessment, participants were given their 28-day supply of citicoline (250 mg or 500 mg) or placebo, which was randomly assigned. They were instructed to take one capsule a day every day for the next 28 days. Visit 2 occurred fourteen days after Visit 1. At Visit 2, the remaining study pills were counted and participant dosage calendars were checked to ensure compliance with the protocol. Additional neuropsychological measures and clinical assessments were administered during this visit. Participants returned for Visit 3 fourteen days later, on the 28th day of their study participation. The pill bottle and the dosage calendar were collected from each participant. Urine and blood were again obtained. Participants also participated in similar clinical and neuropsychological testing and clinical measures that were given during visit 1. The Conners is a self-report questionnaire assessing a range or problem behaviors in children, including family problems, emotional problems, conduct problems, cognitive problems/inattention, anger control problems, hyperactivity, ADHD Index, and DSM-IV symptom subscales. The scale was administered at the first and third visits to assess presence or absence of a range of problem behaviors.

C[N+](C)(C)CCOP(=O)(O)OP(=O)([O-])OC[C@H]1O[C@@H](n2ccc(N)nc2=O)[C@H](O)[C@@H]1O [citicoline, Cytidine 5′-diphosphocholine] was tested, and the “Conners problem behaviors difference scores, between groups” value (250 mg/day vs 500 mg/day, p=0.36) was “no significant differences”, the “Conners problem behaviors difference scores, between groups” value (250 mg/day vs Placebo, p=0.66) was “no significant differences” and the “Conners problem behaviors, between groups” value (250 mg/day vs Placebo, visit 3, p=0.10) was “no significant difference”. The “Conners problem behaviors, within-group change” value (250 mg/day, p=0.02) was “significant increases”, the “Conners problem behaviors, within-group change” value (500 mg/day, p<0.01) was “significant declines” and the “Conners problem behaviors difference scores, between groups” value (Placebo vs 500 mg/day, p=0.17) was “no significant differences”. The “Conners problem behaviors, between groups” value (Placebo vs 500 mg/day, visit 3, p=0.28) was “No significant difference”, the “Conners problem behaviors difference scores, overall” value (three groups, p=0.20) was “no significant difference” and the “Conners problem behaviors, overall analysis” value (three groups, visit 3, p=0.01) was “significant differences”. For the same compound, the “Conners problem behaviors, 500 mg/day relative to 250 mg/day” value (visit 3, p=0.01) was “significantly lower scores”, the “Conners problem behaviors, post-hoc, 500 mg/day relative to 250 mg/day” value (visit 3, p=0.01) was “significantly lower scores” and the “Conners problem behaviors, post-hoc, Placebo vs 250 mg/day” value (visit 3, p=0.09) was “trend toward the Placebo group having lower scores”.
